Laboratory results as given in paper PMC4880191.
For at least one entry, the source does not settle the construct or the ends of the probe. The comparison behind a weaker result is the experiment's own reference, which may not be listed here.

The chains behind the UniProt entries cited, without tags or fusion partners. Residues count along the entry.
UniProt P05455, 114-326: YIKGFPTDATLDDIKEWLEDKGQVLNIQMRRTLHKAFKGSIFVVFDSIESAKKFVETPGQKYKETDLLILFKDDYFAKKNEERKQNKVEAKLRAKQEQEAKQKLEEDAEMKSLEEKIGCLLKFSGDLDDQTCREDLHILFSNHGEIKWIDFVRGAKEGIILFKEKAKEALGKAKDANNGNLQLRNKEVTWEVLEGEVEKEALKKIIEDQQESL

Biological target: La RRM1+2 WT, native (human) (UniProt P05455)
Assay: EMSA
Details: SUMO-GA reaction, no strong complex; L37/L22 EMSA: 1x binding buffer (from 2x: 3 mM MgCl2, 300 mM NaCl, 1 mM EDTA, 0.1% Nonidet P-40), i.e. 1.5 mM MgCl2, 150 mM NaCl, 0.5 mM EDTA, 0.05% NP-40; pH not stated; recombinant protein; residues 114-326; protein details: His6 (pET28b); label: 3'-Cy3

Row | Sequence | binding result
1 | CUCCUCUGCCGCCAUGGCUCCUGUGAAAAAGCUUGUG [L22 TOP RNA] | binds more weakly
2 | UUCCGGUCUCUUUGGCCUCGCCGGUAGAAGCAAGAUG [L37 TOP RNA] | binds more weakly
